Measurements as given in PMC4424835.
No constants are given. Whether binding was seen depends on the method and setting. In cells and extracts the contact can be indirect.

Protein sequences, listed by entry. Tags and fused reporters are not part of them.
UniProt P28223: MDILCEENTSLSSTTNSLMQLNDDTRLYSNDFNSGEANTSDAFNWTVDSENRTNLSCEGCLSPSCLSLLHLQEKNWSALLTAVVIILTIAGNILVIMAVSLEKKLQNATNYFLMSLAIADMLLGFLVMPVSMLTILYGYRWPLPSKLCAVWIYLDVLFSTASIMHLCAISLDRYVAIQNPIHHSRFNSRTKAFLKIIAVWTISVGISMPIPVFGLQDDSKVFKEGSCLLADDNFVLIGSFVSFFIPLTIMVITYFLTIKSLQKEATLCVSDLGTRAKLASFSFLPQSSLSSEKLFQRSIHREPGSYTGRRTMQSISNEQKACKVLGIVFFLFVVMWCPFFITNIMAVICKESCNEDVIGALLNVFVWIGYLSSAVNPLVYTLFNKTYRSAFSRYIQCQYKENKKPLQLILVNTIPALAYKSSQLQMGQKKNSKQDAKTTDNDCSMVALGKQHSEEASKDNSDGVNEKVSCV
UniProt P08173: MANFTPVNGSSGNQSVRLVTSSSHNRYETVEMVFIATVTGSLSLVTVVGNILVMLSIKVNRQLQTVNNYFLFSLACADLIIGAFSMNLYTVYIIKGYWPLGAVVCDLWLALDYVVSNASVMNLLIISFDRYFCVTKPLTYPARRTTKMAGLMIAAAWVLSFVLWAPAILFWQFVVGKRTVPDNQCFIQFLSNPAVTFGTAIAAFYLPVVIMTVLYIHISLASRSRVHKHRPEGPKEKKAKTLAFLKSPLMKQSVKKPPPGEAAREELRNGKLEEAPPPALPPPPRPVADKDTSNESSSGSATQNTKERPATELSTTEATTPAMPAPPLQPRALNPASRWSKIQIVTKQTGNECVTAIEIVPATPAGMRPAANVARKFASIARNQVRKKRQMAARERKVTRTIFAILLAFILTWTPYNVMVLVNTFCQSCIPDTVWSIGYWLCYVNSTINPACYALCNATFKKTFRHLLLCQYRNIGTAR
UniProt P08913: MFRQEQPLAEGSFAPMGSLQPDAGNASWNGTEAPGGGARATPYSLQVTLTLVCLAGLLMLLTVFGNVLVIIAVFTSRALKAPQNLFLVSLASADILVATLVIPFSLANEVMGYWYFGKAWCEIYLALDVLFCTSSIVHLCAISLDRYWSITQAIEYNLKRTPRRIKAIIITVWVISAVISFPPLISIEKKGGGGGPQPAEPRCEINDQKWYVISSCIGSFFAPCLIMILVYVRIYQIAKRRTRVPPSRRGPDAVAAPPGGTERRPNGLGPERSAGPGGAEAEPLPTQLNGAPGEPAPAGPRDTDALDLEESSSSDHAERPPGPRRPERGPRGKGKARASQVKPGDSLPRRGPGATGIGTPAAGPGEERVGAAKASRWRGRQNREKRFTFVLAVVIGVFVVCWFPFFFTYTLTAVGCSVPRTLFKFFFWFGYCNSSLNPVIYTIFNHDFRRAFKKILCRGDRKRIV

The substances below were run against β2 adrenergic receptor (UniProt P07550) (assay: FRET or BRET; BRET in living Flp-In T-REx HEK 293 cells; acceptor β2AR-V induced with 0-0.1 μg/ml tetracycline (~75 to ~3,000 μm^-2), Rluc8 donor transiently transfected for 12-48 h at several expression levels; net BRET versus acceptor expression; coelenterazine h 5 μM; room temperature (~25 °C)).
“5HT2A serotonin receptor fused to Rluc8 (from UniProt P28223 1-471)” was tested, and the binding was “no binding (tested: ~3,000 μm^−2 (highest β2AR-V density))”.
“M4 muscarinic acetylcholine receptor fused to Rluc8 (from UniProt P08173 1-479)” was tested, and the binding was “no binding (tested: ~3,000 μm^−2 (highest β2AR-V density))”.
With “α2A adrenergic receptor fused to Rluc8 (from UniProt P08913 1-465)” the binding was “no binding (tested: ~3,000 μm^−2 (highest β2AR-V density))”.
